Some of the results follow.
What was measured:
[1] = target: Neu5Gc(a2-8)Neu5Gc(a2-6)Gal(b1-4)GlcNAc; assay: glycan array binding signal (z-score within array); higher = stronger binding; settings: glycan notation: IUPAC condensed, linker removed
In short: (§1)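 The Consortium for Functional Glycomics database supplied 3228 glycan arrays, of which those lacking an available protein sequence were dropped. The binding signal, a within-array Z-score, was averaged across arrays of the same protein sequence and across linkers. Negative scores can be read as non-binding.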

[2] = target: Neu5Gc(b2-6)Gal(b1-4)GlcNAc; assay: as above; settings: glycan notation: IUPAC condensed, linker removed
In short: as §1

B1: Aap arpt (Staphylococcus epidermidis) (protein)
chain: NNEAPQMSSTLQAEEGSNAEAPQSEPTKAEEGGNAEAAQSEPTKAEEGGNAEAPQSEPTKAEEGGNAEAAQSEPTKTEEGSNVKAAQSEPTKAEEGSNAEAPQSEPTKTEEGSNAKAAQSEPTKAEEGGNAEAAQSEPTKTEEGSNAEAPQSEPTKAEEGGYAEAPQSEPTKTEEGGNAEAPNVPTIKA
glycan array binding signal (z-score) [1]: -1.44
glycan array binding signal (z-score) [2]: -1.08

Reference: the supplement of paper PMC8728848
